No constants are given. Whether binding was seen depends on the method and setting. Some binding calls cover weakened binding; strength is not graded here.
Molecular target: micro-plasmin (human) (UniProt P00747)
Experiment: SDS-PAGE and immunoblot under reducing conditions

Sequences of proteins named here, by UniProt entry; tags and fusion partners are left off. Residues count along the entry.
UniProt P00747, residues 562-810: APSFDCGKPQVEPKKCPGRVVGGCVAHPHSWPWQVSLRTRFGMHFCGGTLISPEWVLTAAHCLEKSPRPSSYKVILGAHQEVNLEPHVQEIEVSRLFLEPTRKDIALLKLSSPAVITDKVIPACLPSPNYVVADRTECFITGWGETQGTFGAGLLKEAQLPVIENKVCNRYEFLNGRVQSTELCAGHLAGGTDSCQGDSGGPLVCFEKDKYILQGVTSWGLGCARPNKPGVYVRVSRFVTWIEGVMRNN

binding: binds
B1: native human α2-antiplasmin (other, UniProt P08697 40-491, looked up)
chain: NQEQVSPLTLLKLGNQEPGGQTALKSPPGVCSRDPTPEQTHRLARAMMAFTADLFSLVAQTSTCPNLILSPLSVALALSHLALGAQNHTLQRLQQVLHAGSGPCLPHLLSRLCQDLGPGAFRLAARMYLQKGFPIKEDFLEQSEQLFGAKPVSLTGKQEDDLANINQWVKEATEGKIQEFLSGLPEDTVLLLLNAIHFQGFWRNKFDPSLTQRDSFHLDEQFTVPVEMMQARTYPLRWFLLEQPEIQVAHFPFKNNMSFVVLVPTHFEWNVSQVLANLSWDTLHPPLVWERPTKVRLPKLYLKHQMDLVATLSQLGLQELFQAPDLRGISEQSLVVSGVQHQSTLELSEVGVEAAAATSIAMSRMSLSSFSVNRPFLFFIFEDTTGLPLFVGSVRNPNPSAPRELKEQQDSPGNKDFLQSLKGFPRGDKLFGPDLKLVPPMEEDYPQFGSPK
modifications: radioiodinated (125I) in the binding assays
notes: mature; Bought native protein; also called native human α2-AP; native α2-AP

From patent US20160039943A1 (TRANSLATIONAL SCIENCES, published 2016)
